The target of this assay is T1, growth arrest and DNA damage protein 45b (Gadd45b) (rat (endogenous in rat ischemic cortex)) (UniProt F7FLQ8).
T1 sequence: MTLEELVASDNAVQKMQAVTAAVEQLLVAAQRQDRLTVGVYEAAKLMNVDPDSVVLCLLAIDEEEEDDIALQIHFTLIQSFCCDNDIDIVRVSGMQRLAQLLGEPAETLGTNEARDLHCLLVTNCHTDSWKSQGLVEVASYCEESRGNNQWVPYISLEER
Kind of assay: co-IP; Protein A/G magnetic beads loaded with anti-ALK5, anti-Gadd45b or anti-IgG antibody, incubated with protein samples of rat ischemic cortex for 2 h at 4 °C; eluates Western blotted for ALK5 and Gadd45b; tissue taken 24 h and 14 d after MCAO/R. For orientation: Immunoblotting shows a protein as a band on a membrane.

Experimental findings from article PMC6494915 are described below.

Results are given in words; binding and its absence hold for the method and conditions named. Binding seen in cells or lysates may run through a third protein. Some binding calls cover weakened binding; strength is not graded here.

B1: activin receptor-like kinase 5 (ALK5) (receptor, UniProt P80204 30-501)
chain: LQCFCHLCTKDNFTCETDGLCFVSVTETTDKVIHNSMCIAEIDLIPRDRPFVCAPSSKTGAVTYCCNQDHCNKIELPTTGPFSEKQSAGLGPVELAAVIAGPVCFVCIALMLMVYICHNRTVIHHRVPNEEDPSLDRPFISEGTTLKDLIYDMTTSGSGSGLPLLVQRTIARTIVLQESIGKGRFGEVWRGKWRGEEVAVKIFSSREERSWFREAEIYQTVMLRHENILGFIAADNKDNGTWTQLWLVSDYHEHGSLFDYLNRYTVTVEGMIKLALSTASGLAHLHMEIVGTQGKPAIAHRDLKSKNILVKKNGTCCIADLGLAVRHDSATDTIDIAPNHRVGTKRYMAPEVLDDSINMKHFESFKRADIYAMGLVFWEIARRCSIGGIHEDYQLPYYDLVPSDPSVEEMRKVVCEQKLRPNIPNRWQSCEALRVMAKIMRECWYANGAARLTALRIKKTLSQLSQQEGIKM
Regarding B1, the binding entry was “binds”.
